Results on one molecule are retold here after patent publication US20160096882A1.

These are yes or no findings as the source states them, for the method shown. Some binding calls cover weakened binding; strength is not graded here.

The target in this experiment is H3N2 Hong Kong/68 hemagglutinin (Influenza A virus H3N2 Hong Kong/68) (UniProt P03437). The experiment can be described thus: IgG binding to hemagglutinin antigen, Table 2 column 'Binding'.

B1: 1286-A11 antibody (antibody, V domains shown)
VH: QVQLQQSGPRLVKPSQTLSLTCAISGDSVSGDSGTWNWIRQSPSRGLEWLGRTYYRSKWYNDYAESVKSRIVIKADTSKNEFSLQLNSVTPEDTAIYYCARAGVKIFGLIVGALDNWGRGTLVTVSS
VL: EIVMTQSPGTLSLSPGERATLSCRASQSVSSSYLAWYQQKPGQAPRLLIYGASTRATGVPDRFHGGGSGTDFTLTISRLEPEDFAVYYCQQYDTSSGLTFGGGTKVEIK
As to B1, the binding entry is “binds”.
